The other results are listed elsewhere or left out. Single values are uncertain, as repeats are few or missing.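 Imaging used 1,536-well plates; nuclei positive for cleaved PARP by antibody were divided by total DNA-stained nuclei to yield the apoptosis fraction. Doses for screening kept most cells viable, and cell lines differ markedly in resting and induced cleaved-PARP levels.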
What was measured:
Assay in all cases: cleaved PARP positive nuclei fraction relative to DMSO control; melanoma cells; higher = more apoptosis
Details in all cases: library dose: low library concentration; 72 h
MZ2-MEL = tested on: MZ2-MEL
MeWo = tested on: MeWo
RPMI7951 = tested on: RPMI7951
RVH-421 = tested on: RVH-421
SkMel28 = tested on: SkMel28
SkMel2 = tested on: SkMel2
SkMel30 = tested on: SkMel30
SkMel5 = tested on: SkMel5
UACC257 = tested on: UACC257
UACC62 = tested on: UACC62
WM115 = tested on: WM115
WM1716 = tested on: WM1716
WM1745 = tested on: WM1745
WM3526 = tested on: WM3526
WM3619 = tested on: WM3619
WM451Lu = tested on: WM451Lu

Row | Compound | cleaved PARP positive nuclei fraction (MZ2-MEL) [%] | cleaved PARP positive nuclei fraction (MeWo) [%] | cleaved PARP positive nuclei fraction (RPMI7951) [%] | cleaved PARP positive nuclei fraction (RVH-421) [%] | cleaved PARP positive nuclei fraction (SkMel28) [%] | cleaved PARP positive nuclei fraction (SkMel2) [%] | cleaved PARP positive nuclei fraction (SkMel30) [%] | cleaved PARP positive nuclei fraction (SkMel5) [%] | cleaved PARP positive nuclei fraction (UACC257) [%] | cleaved PARP positive nuclei fraction (UACC62) [%] | cleaved PARP positive nuclei fraction (WM115) [%] | cleaved PARP positive nuclei fraction (WM1716) [%] | cleaved PARP positive nuclei fraction (WM1745) [%] | cleaved PARP positive nuclei fraction (WM3526) [%] | cleaved PARP positive nuclei fraction (WM3619) [%] | cleaved PARP positive nuclei fraction (WM451Lu) [%]
1 | CN1CCN(c2ccc3nc(-c4c(N)c5c(F)cccc5[nH]c4=O)[nH]c3c2)CC1 [Dovitinib] + C=CCn1c(=O)c2cnc(Nc3ccc(N4CCN(C)CC4)cc3)nc2n1-c1cccc(C(C)(C)O)n1 [MK1775] (first compound 0.1 µM, partner dose 0.02 µM) | 62.3 | 120 | 27.6 | 101 | 40.4 | 74.2 | 67.8 | 77.9 | 63.2 | 120 | 209 | 104 | 134 | 65.3 | 122 | 174
2 | O=C(O)c1ccc2c(c1)nc(Nc1cccc(Cl)c1)c1ccncc12 + O=C(Nc1cccc(Cl)c1)Nc1ncc(CCNc2ncnc3ccsc23)s1 [SNS314] (first compound 0.4 µM, partner dose 0.0008 µM) | 94.4 | 39.5 | 39.1 | 205 | 27.4 | 124 | 125 | 171 | 93.8 | 143 | 482 | 192 | 91.2 | 136 | 190 | 33.5
3 | Cc1cc(Nc2cc(N3CCN(C)CC3)nc(/C=C/c3ccccc3)n2)n[nH]1 + CN(C)S(=O)(=O)c1ccc2c(c1)/C(=C/c1cc3c([nH]1)CCCC3)C(=O)N2 [SU6656] (first compound 0.04 µM, partner dose 0.4 µM) | 129 | 231 | 92.8 | 95.8 | 34.4 | 28.1 | 71.1 | 150 | 99.7 | 69.7 | 447 | 33.7 | 101 | 98.8 | 118 | 42
4 | Nc1ncn([C@H]2C[C@H](O)[C@@H](CO)O2)c(=O)n1 [decitabine] + COc1cc2ncnc(Nc3ccc(Oc4ccccc4)cc3)c2cc1OC [SrcI1] (first compound 0.1 µM, partner dose 2 µM) | 47.5 | 74.7 | 31 | 117 | 132 | 42.4 | 112 | 62.9 | 217 | 153 | 86.2 | 99.9 | 98.2 | 35.4 | 87.9 | 182
5 | CN1CCN(c2ccc3nc(-c4c(N)c5c(F)cccc5[nH]c4=O)[nH]c3c2)CC1 [Dovitinib] + COc1ccc2c(c1)CCC1C2CCC2(C)C(NCCCCCCN3C(=O)C=CC3=O)CCC12 [U73122] (first compound 0.1 µM, partner dose 0.4 µM) | 233 | 53.6 | 67.6 | 155 | 60.1 | 68.8 | 31.9 | 81.5 | 204 | 127 | 209 | 316 | 84.1 | 64.7 | 83.7 | 87.9
6 | Nc1ccn([C@@H]2O[C@H](CO)[C@@H](O)C2(F)F)c(=O)n1 [gemcitabine] + C[C@@H]1CCN(C(=O)CC#N)C[C@@H]1N(C)c1ncnc2[nH]ccc12 [CP690550] (first compound 0.0004 µM, partner dose 1 µM) | 86.3 | 134 | 69.8 | 93.1 | 108 | 68.6 | 57.9 | 135 | 162 | 72.9 | 37.5 | 57.1 | 120 | 32.8 | 125 | 95.9
7 | O=C(O)[C@@H]1[O][Sb](=[O])([O][Sb]2(=[O])[O][C@H]([C@H](O)CO)[C@H](O)[C@H](C(=O)O)[O]2)[O][C@H]([C@H](O)CO)[C@@H]1O (stereo partly drawn) [stibogluconate] + CO[C@@H]1[C@H](N(C)C(=O)c2ccccc2)C[C@H]2O[C@]1(C)n1c3ccccc3c3c4c(c5c6ccccc6n2c5c31)C(=O)NC4 [Midostaurin] (first compound 2 µM, partner dose 0.08 µM) | 40.1 | 170 | 237 | 70.7 | 31 | 140 | 53.1 | 32.3 | 57.4 | 60.7 | 163 | 94.1 | 102 | 71.3 | 86.9 | 49.1
8 | O=C(O)c1ccc2c(c1)nc(Nc1cccc(Cl)c1)c1ccncc12 + CC(C)CCN1c2nc(Nc3cc(F)c(O)c(F)c3)ncc2N(C)C(=O)C1C [BID1870] (first compound 0.4 µM, partner dose 0.2 µM) | 149 | 183 | 289 | 75.7 | 151 | 134 | 167 | 91.3 | 118 | 120 | 477 | 137 | 88 | 113 | 82.8 | 40.6
9 | Nc1ccn([C@@H]2O[C@H](CO)[C@@H](O)C2(F)F)c(=O)n1 [gemcitabine] + O=C(O)C(=O)Nc1sc2c(c1C(=O)O)CCNC2 [TCS401] (first compound 0.0004 µM, partner dose 1.66667 µM) | 102 | 141 | 71.7 | 446 | 84.1 | 94.7 | 89.2 | 152 | 190 | 122 | 75.1 | 49.3 | 123 | 87.9 | 108 | 32.9
10 | O=C(O)[C@@H]1[O][Sb](=[O])([O][Sb]2(=[O])[O][C@H]([C@H](O)CO)[C@H](O)[C@H](C(=O)O)[O]2)[O][C@H]([C@H](O)CO)[C@@H]1O (stereo partly drawn) [stibogluconate] + Cn1cc(/C=C2\C(=O)Nc3cccnc32)c2ccccc21 [GW441756] (first compound 2 µM, partner dose 0.4 µM) | 85.3 | 71.1 | 198 | 94.7 | 38.6 | 22.9 | 505 | 82.6 | 69.9 | 50.2 | 25.6 | 92.4 | 92 | 70.6 | 83.8 | 90.3
11 | CS(=O)(=O)CCNCc1ccc(-c2ccc3ncnc(Nc4ccc(OCc5cccc(F)c5)c(Cl)c4)c3c2)o1 [lapatinib] + O=C(Nc1cccc(Cl)c1)Nc1ncc(CCNc2ncnc3ccsc23)s1 [SNS314] (first compound 0.8 µM, partner dose 0.0008 µM) | 182 | 106 | 66 | 128 | 130 | 69.6 | 70.7 | 68.3 | 240 | 43.4 | 143 | 172 | 92.7 | 55.7 | 84.2 | 75.6
12 | CNC(=O)c1cc(Oc2ccc(NC(=O)Nc3ccc(Cl)c(C(F)(F)F)c3)cc2)ccn1 [sorafenib] + O=c1cc(-c2cccc3c2Sc2ccccc2S3)oc(N2CCOCC2)c1 [KU55933] (first compound 0.4 µM, partner dose 1 µM) | 158 | 158 | 76.1 | 73 | 186 | 97.2 | 80 | 84.6 | 126 | 166 | 90.6 | 62.5 | 90.7 | 87.5 | 96.3 | 76.7
13 | CN1CCN(c2ccc3nc(-c4c(N)c5c(F)cccc5[nH]c4=O)[nH]c3c2)CC1 [Dovitinib] + O=C(O)c1ccc(-c2c[nH]c3ncc(-c4ccccc4)cc23)cc1C1CCCC1 [GSK650394] (first compound 0.1 µM, partner dose 0.16 µM) | 115 | 137 | 31.4 | 13.3 | 60.5 | 53.4 | 195 | 39.2 | 95.3 | 110 | 129 | 107 | 128 | 72.8 | 96 | 47.6
14 | O=C(O)[C@@H]1[O][Sb](=[O])([O][Sb]2(=[O])[O][C@H]([C@H](O)CO)[C@H](O)[C@H](C(=O)O)[O]2)[O][C@H]([C@H](O)CO)[C@@H]1O (stereo partly drawn) [stibogluconate] + c1cc(-c2cnn3cc(-c4ccc(OCCN5CCCCC5)cc4)cnc23)ccn1 [Dorsomorphin] (first compound 2 µM, partner dose 0.4 µM) | 62.5 | 18.5 | 26.7 | 139 | 115 | 19.1 | 35.1 | 83 | 114 | 107 | 87.8 | 61 | 86.2 | 120 | 79.7 | 74.1
15 | C=C(c1ccc(C(=O)O)cc1)c1cc2c(cc1C)C(C)(C)CCC2(C)C [Bexarotene] + CCCCCCCCCCCC1=C(O)C(=O)C=C(O)C1=O [Embelin] (first compound 2 µM, partner dose 1.2 µM) | 79.9 | 83.8 | 32.4 | 70.7 | 272 | 97.9 | 141 | 169 | 178 | 74.1 | 47.7 | 216 | 96.1 | 87.1 | 86.1 | 204
16 | CNC(=O)c1cc(Oc2ccc(NC(=O)Nc3ccc(Cl)c(C(F)(F)F)c3)cc2)ccn1 [sorafenib] + CCc1ccc(CCOc2ccc(CC3SC(=O)NC3=O)cc2)nc1 [pioglitazone] (first compound 0.4 µM, partner dose 2 µM) | 103 | 83.3 | 73.7 | 99.1 | 108 | 79.3 | 159 | 74.5 | 83.5 | 117 | 15.5 | 47.8 | 92.7 | 225 | 78.6 | 79.8
17 | O=C(O)[C@@H]1[O][Sb](=[O])([O][Sb]2(=[O])[O][C@H]([C@H](O)CO)[C@H](O)[C@H](C(=O)O)[O]2)[O][C@H]([C@H](O)CO)[C@@H]1O (stereo partly drawn) [stibogluconate] + COc1cc(N2CCC(N3CCN(C)CC3)CC2)ccc1Nc1ncc(Cl)c(Nc2ccccc2S(=O)(=O)C(C)C)n1 [NVP-TAE684] (first compound 2 µM, partner dose 0.08 µM) | 91.5 | 101 | 34.9 | 84.7 | 147 | 181 | 51.8 | 164 | 109 | 54.3 | 131 | 116 | 98.3 | 82.9 | 95.5 | 53.8
18 | C[C@@H](Oc1cc(-c2cnn(C3CCNCC3)c2)cnc1N)c1c(Cl)ccc(F)c1Cl [Crizotinib] + COc1ccc(COc2ccc(Cc3cnc(N)nc3N)cc2OC)cc1 [GW2580] (first compound 0.2 µM, partner dose 1 µM) | 33.9 | 90.9 | 65.9 | 126 | 179 | 19.2 | 28.3 | 168 | 217 | 83.5 | 143 | 109 | 86.7 | 473 | 102 | 140

Given in CSV form: part of the list above.
Row,Compound,cleaved PARP positive nuclei fraction (MZ2-MEL) [%],cleaved PARP positive nuclei fraction (MeWo) [%],cleaved PARP positive nuclei fraction (RPMI7951) [%],cleaved PARP positive nuclei fraction (RVH-421) [%],cleaved PARP positive nuclei fraction (SkMel28) [%],cleaved PARP positive nuclei fraction (SkMel2) [%],cleaved PARP positive nuclei fraction (SkMel30) [%],cleaved PARP positive nuclei fraction (SkMel5) [%],cleaved PARP positive nuclei fraction (UACC257) [%],cleaved PARP positive nuclei fraction (UACC62) [%],cleaved PARP positive nuclei fraction (WM115) [%],cleaved PARP positive nuclei fraction (WM1716) [%],cleaved PARP positive nuclei fraction (WM1745) [%],cleaved PARP positive nuclei fraction (WM3526) [%],cleaved PARP positive nuclei fraction (WM3619) [%],cleaved PARP positive nuclei fraction (WM451Lu) [%]
17,"O=C(O)[C@@H]1[O][Sb](=[O])([O][Sb]2(=[O])[O][C@H]([C@H](O)CO)[C@H](O)[C@H](C(=O)O)[O]2)[O][C@H]([C@H](O)CO)[C@@H]1O (stereo partly drawn) [stibogluconate] + COc1cc(N2CCC(N3CCN(C)CC3)CC2)ccc1Nc1ncc(Cl)c(Nc2ccccc2S(=O)(=O)C(C)C)n1 [NVP-TAE684] (first compound 2 µM, partner dose 0.08 µM)",91.5,101,34.9,84.7,147,181,51.8,164,109,54.3,131,116,98.3,82.9,95.5,53.8
18,"C[C@@H](Oc1cc(-c2cnn(C3CCNCC3)c2)cnc1N)c1c(Cl)ccc(F)c1Cl [Crizotinib] + COc1ccc(COc2ccc(Cc3cnc(N)nc3N)cc2OC)cc1 [GW2580] (first compound 0.2 µM, partner dose 1 µM)",33.9,90.9,65.9,126,179,19.2,28.3,168,217,83.5,143,109,86.7,473,102,140
